For this test, the target named is HA-hnRNPK (hemagglutinin (HA3)-tagged heterogeneous nuclear ribonucleoprotein K, wild type) (UniProt P61978). Description: co-IP; […] (NaCl 100 mM, EDTA 2 mM, Tris-HCl 50 mM pH 7.5, Triton X-100 1%); […].

Amino acid sequences for entries named in this document (tags omitted).
UniProt O00571: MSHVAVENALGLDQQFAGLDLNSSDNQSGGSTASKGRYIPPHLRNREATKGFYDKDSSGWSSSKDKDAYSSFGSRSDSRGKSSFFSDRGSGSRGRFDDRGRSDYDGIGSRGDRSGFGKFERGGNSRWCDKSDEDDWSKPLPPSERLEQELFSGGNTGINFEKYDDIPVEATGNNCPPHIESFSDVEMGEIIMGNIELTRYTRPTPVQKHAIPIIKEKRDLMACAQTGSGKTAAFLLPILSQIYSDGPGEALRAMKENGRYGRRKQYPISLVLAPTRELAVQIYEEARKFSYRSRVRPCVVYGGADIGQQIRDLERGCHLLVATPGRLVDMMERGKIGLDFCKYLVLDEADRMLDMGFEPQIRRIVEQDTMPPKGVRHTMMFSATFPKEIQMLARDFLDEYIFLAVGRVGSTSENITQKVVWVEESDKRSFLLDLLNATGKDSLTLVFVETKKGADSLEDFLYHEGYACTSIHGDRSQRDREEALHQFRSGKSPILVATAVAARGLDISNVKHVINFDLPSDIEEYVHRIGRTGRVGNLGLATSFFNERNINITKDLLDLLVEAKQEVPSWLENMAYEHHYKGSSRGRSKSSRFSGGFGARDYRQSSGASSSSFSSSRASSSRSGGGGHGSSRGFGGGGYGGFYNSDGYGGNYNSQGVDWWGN

No constants are given. Whether binding was seen depends on the method and setting. In cells and extracts the contact can be indirect. Some binding calls cover weakened binding; strength is not graded here.

With DDX3 (from UniProt O00571 1-662), the binding entry is “binds”.
In the case of “Human antigen R (HuR) (from UniProt Q15717 1-326)”, the binding entry is “binds”.

The values are drawn from PMC10954487.
